Data published in article PMC6312541.
Results are given in words; binding and its absence hold for the method and conditions named. Binding seen in cells or lysates may run through a third protein. A result given as binding can be weak or reduced; the word gives no strength.

Sequences of proteins named here, by UniProt entry; tags and fusion partners are left off. A change or cut given only in a name is not applied to a line headed by its entry.
UniProt Q13283: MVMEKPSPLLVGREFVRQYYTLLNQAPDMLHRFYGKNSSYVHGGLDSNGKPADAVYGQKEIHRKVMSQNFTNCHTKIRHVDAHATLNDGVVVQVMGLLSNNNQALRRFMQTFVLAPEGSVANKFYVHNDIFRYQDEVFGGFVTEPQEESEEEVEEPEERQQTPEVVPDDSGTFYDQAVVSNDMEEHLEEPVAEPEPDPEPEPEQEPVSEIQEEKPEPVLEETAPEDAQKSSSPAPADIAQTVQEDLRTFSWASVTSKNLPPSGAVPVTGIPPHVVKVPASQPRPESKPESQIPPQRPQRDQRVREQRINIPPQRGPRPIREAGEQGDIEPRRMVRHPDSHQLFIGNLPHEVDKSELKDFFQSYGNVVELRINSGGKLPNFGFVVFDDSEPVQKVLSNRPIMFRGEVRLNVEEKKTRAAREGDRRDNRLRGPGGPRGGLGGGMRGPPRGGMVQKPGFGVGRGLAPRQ
UniProt Q04637: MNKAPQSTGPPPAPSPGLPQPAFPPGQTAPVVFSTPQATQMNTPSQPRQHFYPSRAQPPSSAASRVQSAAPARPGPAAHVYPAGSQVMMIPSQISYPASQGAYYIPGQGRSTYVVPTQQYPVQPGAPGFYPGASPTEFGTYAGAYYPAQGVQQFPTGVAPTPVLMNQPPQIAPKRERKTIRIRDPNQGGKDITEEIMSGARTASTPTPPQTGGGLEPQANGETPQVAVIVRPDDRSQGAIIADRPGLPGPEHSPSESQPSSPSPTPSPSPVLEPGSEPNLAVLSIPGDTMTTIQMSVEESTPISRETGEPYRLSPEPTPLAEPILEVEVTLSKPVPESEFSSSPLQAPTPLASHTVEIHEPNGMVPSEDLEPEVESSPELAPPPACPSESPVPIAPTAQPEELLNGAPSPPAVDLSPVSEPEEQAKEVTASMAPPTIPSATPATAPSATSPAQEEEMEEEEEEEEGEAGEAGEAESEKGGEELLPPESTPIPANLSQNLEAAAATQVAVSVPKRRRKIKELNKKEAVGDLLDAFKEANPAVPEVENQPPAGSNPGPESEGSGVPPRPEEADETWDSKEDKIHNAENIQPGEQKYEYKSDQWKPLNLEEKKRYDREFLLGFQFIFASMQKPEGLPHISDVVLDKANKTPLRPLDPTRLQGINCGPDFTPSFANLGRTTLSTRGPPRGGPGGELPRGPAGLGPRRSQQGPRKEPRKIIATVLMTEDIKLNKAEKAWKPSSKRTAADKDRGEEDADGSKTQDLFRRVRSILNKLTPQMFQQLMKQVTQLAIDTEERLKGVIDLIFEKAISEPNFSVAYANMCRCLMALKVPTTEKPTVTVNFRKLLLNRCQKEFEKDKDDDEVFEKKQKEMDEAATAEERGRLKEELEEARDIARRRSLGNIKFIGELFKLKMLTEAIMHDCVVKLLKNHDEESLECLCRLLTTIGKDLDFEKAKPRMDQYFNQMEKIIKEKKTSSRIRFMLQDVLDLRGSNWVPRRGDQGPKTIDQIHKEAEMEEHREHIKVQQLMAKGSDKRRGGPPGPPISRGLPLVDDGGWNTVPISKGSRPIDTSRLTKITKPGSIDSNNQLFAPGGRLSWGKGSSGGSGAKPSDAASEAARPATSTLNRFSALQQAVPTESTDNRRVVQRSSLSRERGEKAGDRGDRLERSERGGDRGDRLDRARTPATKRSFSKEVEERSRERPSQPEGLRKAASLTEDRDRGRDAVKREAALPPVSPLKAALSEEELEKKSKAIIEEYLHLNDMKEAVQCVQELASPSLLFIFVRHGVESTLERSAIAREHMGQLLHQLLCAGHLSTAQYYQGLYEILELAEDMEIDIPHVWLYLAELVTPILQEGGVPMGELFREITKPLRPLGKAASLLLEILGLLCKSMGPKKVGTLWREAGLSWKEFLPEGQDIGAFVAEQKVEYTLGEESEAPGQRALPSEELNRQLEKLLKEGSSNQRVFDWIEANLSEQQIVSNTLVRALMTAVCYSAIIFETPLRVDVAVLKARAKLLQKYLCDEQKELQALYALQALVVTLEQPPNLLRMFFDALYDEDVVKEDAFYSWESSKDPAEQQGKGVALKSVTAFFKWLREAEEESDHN

Key:
Test in all cases: co-IP; IP with anti-FLAG M2 affinity gel (4 °C, 4 h) from lysates of HeLa cells transfected with Flag-tagged constructs; WB for endogenous eIF4GI; lysis buffer with 1% Triton X-100, 0.1% SDS, 1 mM EDTA, pH 7.4
[1] = molecular target: Flag-tagged G3BP1 lacking the RNA recognition motif (G3BP1-ΔRRM) (human (from the RefSeq entry NM_005754.2)) (UniProt Q13283)
[2] = molecular target: Flag-tagged G3BP1 lacking the acidic (ACID) domain (human (from the RefSeq entry NM_005754.2)) (UniProt Q13283)
[3] = molecular target: Flag-tagged G3BP1 lacking the proline-rich (PxxP) domain (human (from the RefSeq entry NM_005754.2)) (UniProt Q13283)

binding [1]: binds | binding [2]: binds | binding [3]: binds
Substance: eIF4GI, endogenous (from UniProt Q04637 1-1599)
